Data as given in CN115232208A.
Substitutions are numbered along the chain they refer to. Results are given in words; binding and its absence hold for the method and conditions named. Some results given as binding are weak or reduced against the parent protein; the word gives no strength.

Amino acid sequences for entries named in this document (tags omitted). Residues count along the entry.
UniProt Q9Y275, residues 134-285: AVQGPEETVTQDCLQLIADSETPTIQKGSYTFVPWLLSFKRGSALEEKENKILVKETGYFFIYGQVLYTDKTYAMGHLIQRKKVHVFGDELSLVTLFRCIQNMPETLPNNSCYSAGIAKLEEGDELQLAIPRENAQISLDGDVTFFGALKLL

B1: H48L47 (antibody, human IgG1, kappa, V domains shown)
VH: EVQLVESGGGLVQPGGSMKLSCAASGFTFSDAWMDWVRQAPGKGLEWVAEIRNKANNHATYQAESVKGRFTISRDDSKNSVYLQMNSLKTEDTAVYYCTRAPFDLLVRRGYYIMDYWGQGTSVTVSS
VL: DIQMTQTPSSLSASLGDRVTISCRTSQDISIYLNWYQQKPGKAPKLLIYYTSRLRSGVPSRFSGSGSGTDFSLTISSLQPEDFATYFCQQGSTLPWTFGGGTKLEIKR
B2: H482L47 (antibody, human IgG1, kappa, V domains shown)
VH: B1 VH with M18L, K19R, A49G, S122L
VL: B1 VL
B3: H484L474 (antibody, human IgG1, kappa, V domains shown)
VH: B1 VH with M18L, K19R, N79S, K89R, T90A, S122L
VL: B1 VL with T7S, L11V, L15V, S22T, S72T
B4: H484L473 (antibody, human IgG1, kappa, V domains shown)
VH: B1 VH with M18L, K19R, N79S, K89R, T90A, S122L
VL: B1 VL with T7S, L15V, S22T, S72T, L73F, F83I
B5: H48L473 (antibody, human IgG1, kappa, V domains shown)
VH: B1 VH
VL: B1 VL with T7S, L15V, S22T, S72T, L73F, F83I
B6: H484L47 (antibody, human IgG1, kappa, V domains shown)
VH: B1 VH with M18L, K19R, N79S, K89R, T90A, S122L
VL: B1 VL
B7: H483L473 (antibody, human IgG1, kappa, V domains shown)
VH: B1 VH with Q13K, M18L, K19R, A49G, N79S, S80T, S122L
VL: B1 VL with T7S, L15V, S22T, S72T, L73F, F83I
B8: H482L472 (antibody, human IgG1, kappa, V domains shown)
VH: B1 VH with M18L, K19R, A49G, S122L
VL: B1 VL with T7S, L15V, S22T, S72T
B9: H483L47 (antibody, human IgG1, kappa, V domains shown)
VH: B1 VH with Q13K, M18L, K19R, A49G, N79S, S80T, S122L
VL: B1 VL
B10: H482L473 (antibody, human IgG1, kappa, V domains shown)
VH: B1 VH with M18L, K19R, A49G, S122L
VL: B1 VL with T7S, L15V, S22T, S72T, L73F, F83I

Molecular target: 重组人BLyS蛋白 (recombinant human BLyS protein) (human) (UniProt Q9Y275)
Test: Binding ELISA, human BLyS coated

binding | Binder
binds | B1
binds | B2
binds | B3
binds | B4
binds | B5
binds | B6
binds | B7
binds | B8
binds | B9
binds | B10
